Results are given in words; binding and its absence hold for the method and conditions named.
Biological target: T1, FITC-labeled 21-residue peptide containing the BH3 domain of BAD (human)
T1 sequence (peptide, FITC on the lysine at peptide position 18 (K(FITC))): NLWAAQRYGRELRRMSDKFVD
Test: fluorescence polarisation; high concentrations of BAD-GST added to the f-BH3 peptide; conditions not given; both purified

Amino acid sequences for entries named in this document (tags omitted). A change or cut given only in a name is not applied to a line headed by its entry.
UniProt Q92934: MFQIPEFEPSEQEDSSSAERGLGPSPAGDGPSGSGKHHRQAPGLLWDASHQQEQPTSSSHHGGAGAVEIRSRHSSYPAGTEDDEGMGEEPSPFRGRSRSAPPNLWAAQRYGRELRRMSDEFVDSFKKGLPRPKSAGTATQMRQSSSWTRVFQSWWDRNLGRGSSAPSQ

- binding: no binding
Substance: recombinant human BAD-GST fusion polypeptide (from UniProt Q92934)
